According to the supplement of paper PMC10849652:
The other results are listed elsewhere or left out.

Protein sequences, listed by entry. Tags and fused reporters are not part of them. Lines headed by an entry give the natural chain unless they say otherwise; changes in a name come on top.
UniProt O43681: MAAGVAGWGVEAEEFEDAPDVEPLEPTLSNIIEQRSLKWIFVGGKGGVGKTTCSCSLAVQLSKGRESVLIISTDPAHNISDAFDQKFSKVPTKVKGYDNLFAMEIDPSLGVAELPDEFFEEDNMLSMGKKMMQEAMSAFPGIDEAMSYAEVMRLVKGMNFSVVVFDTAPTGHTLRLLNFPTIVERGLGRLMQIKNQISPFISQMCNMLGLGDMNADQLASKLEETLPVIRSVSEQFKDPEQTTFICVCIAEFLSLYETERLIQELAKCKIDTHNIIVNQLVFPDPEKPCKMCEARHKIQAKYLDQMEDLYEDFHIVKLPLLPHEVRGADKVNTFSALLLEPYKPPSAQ
UniProt Q9BSB4: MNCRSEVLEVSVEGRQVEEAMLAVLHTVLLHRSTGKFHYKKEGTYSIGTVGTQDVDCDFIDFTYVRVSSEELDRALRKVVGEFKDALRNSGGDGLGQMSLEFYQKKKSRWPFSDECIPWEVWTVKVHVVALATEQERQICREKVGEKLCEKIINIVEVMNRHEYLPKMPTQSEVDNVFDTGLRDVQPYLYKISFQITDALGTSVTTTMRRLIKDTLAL
UniProt O94766: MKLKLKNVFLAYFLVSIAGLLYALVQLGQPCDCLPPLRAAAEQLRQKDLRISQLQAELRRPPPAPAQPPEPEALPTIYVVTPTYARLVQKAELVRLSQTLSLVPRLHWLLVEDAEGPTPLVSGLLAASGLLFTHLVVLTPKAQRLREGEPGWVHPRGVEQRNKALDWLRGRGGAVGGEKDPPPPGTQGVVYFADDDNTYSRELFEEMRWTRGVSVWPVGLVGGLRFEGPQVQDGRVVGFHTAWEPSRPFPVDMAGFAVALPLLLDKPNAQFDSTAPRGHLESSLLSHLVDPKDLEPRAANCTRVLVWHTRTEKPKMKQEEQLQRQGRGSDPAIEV
UniProt P21281, whole entry, looked up: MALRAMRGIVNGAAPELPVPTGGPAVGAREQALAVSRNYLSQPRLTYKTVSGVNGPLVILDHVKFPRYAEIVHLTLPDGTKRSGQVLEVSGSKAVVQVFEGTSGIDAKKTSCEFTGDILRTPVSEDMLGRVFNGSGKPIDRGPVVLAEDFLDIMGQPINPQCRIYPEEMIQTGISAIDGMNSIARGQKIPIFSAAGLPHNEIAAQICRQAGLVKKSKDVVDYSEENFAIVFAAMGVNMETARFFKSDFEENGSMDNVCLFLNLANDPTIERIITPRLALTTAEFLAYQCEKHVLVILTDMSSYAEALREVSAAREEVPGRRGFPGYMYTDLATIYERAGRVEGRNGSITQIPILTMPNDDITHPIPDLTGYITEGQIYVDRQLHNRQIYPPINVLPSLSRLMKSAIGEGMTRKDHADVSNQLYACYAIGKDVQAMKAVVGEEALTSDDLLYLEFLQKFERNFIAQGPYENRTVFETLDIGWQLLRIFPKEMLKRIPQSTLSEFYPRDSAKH
UniProt Q676U5: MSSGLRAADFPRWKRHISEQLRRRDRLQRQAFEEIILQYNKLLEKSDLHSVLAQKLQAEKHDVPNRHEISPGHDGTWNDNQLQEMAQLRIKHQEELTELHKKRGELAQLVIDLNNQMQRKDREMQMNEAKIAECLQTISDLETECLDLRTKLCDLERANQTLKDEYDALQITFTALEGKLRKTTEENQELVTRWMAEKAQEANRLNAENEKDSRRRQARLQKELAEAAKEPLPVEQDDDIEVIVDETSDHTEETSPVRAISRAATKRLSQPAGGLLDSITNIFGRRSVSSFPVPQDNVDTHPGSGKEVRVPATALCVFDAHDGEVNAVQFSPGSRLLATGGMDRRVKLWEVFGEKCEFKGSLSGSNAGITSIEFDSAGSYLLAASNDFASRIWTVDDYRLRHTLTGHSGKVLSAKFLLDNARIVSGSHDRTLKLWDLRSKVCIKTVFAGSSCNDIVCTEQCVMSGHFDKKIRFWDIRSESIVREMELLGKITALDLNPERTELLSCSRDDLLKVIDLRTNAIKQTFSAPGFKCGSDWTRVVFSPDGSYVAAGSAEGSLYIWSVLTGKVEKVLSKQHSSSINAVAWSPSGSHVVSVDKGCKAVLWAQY
UniProt Q93050, whole entry, looked up: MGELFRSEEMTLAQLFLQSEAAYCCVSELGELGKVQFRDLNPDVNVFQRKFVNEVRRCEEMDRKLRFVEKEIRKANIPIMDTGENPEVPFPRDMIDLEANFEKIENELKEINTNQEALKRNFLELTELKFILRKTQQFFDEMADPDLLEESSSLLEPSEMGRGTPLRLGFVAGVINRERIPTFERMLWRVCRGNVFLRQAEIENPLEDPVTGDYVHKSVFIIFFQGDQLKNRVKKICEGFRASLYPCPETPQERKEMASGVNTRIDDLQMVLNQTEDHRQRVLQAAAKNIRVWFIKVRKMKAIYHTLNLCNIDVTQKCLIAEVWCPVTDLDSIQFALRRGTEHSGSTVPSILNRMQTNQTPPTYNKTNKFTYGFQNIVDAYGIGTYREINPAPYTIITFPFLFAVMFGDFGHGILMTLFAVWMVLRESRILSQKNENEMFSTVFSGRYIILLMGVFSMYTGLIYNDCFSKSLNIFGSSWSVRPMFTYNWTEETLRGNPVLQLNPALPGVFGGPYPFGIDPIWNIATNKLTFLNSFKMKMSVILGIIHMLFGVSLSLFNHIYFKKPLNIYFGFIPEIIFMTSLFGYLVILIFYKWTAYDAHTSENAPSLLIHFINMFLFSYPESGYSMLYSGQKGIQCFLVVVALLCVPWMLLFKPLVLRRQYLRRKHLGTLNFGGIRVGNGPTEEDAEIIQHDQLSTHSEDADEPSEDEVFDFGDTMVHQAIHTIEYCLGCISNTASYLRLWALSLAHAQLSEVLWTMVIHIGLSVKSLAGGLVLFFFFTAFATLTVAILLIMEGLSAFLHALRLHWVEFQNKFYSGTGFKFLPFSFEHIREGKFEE
UniProt P56378: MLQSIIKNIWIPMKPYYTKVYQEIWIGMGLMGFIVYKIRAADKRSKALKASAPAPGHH
UniProt Q9H6S1, whole entry, looked up: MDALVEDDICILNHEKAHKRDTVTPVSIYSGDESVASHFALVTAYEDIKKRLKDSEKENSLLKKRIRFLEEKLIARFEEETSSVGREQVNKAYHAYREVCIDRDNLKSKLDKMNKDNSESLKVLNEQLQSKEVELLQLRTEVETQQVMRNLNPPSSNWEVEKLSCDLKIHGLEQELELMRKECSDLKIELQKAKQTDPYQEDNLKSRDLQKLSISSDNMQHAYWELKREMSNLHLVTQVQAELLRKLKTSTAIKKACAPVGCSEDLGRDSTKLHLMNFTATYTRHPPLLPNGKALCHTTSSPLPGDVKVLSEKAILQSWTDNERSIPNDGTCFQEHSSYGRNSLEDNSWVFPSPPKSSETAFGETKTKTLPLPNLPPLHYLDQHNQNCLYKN
UniProt Q99700, whole entry, looked up: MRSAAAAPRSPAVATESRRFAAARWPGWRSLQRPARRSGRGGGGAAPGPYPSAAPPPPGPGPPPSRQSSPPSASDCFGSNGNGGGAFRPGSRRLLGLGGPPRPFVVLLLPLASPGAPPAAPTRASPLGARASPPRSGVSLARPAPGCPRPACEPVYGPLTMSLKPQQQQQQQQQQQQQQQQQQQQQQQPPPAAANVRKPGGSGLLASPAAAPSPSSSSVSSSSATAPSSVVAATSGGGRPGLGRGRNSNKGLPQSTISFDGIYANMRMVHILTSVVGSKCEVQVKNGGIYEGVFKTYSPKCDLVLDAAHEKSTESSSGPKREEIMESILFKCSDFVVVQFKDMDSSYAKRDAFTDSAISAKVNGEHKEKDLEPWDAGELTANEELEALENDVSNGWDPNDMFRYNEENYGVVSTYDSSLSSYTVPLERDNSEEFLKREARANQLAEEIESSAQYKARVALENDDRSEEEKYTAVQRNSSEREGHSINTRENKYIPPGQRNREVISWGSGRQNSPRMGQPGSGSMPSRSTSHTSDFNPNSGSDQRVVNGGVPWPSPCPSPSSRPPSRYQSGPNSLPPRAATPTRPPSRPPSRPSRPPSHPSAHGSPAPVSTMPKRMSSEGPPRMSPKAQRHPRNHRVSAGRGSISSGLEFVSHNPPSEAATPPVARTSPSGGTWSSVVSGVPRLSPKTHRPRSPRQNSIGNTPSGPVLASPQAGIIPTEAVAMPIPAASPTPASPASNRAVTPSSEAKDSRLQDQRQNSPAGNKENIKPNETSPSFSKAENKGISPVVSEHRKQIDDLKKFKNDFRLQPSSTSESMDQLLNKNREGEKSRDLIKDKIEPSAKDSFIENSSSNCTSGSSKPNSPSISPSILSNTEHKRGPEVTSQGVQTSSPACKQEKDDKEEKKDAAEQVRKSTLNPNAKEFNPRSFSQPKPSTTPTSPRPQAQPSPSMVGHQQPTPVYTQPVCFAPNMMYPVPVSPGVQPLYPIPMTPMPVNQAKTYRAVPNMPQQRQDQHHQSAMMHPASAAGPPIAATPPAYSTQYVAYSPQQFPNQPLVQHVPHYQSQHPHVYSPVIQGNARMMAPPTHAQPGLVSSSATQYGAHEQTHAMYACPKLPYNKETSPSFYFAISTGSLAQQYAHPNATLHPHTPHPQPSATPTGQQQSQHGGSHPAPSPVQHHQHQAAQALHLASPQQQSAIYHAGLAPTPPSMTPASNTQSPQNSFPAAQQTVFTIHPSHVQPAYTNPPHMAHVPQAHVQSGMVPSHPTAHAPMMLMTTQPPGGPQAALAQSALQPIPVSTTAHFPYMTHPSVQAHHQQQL
UniProt P36543, whole entry, looked up: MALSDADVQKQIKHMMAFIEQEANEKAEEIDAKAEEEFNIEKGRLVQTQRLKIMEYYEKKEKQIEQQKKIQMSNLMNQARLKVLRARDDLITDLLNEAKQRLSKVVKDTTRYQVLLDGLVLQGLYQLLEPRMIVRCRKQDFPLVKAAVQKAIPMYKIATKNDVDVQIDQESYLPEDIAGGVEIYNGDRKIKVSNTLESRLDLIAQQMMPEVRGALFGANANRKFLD
UniProt Q13733, whole entry, looked up: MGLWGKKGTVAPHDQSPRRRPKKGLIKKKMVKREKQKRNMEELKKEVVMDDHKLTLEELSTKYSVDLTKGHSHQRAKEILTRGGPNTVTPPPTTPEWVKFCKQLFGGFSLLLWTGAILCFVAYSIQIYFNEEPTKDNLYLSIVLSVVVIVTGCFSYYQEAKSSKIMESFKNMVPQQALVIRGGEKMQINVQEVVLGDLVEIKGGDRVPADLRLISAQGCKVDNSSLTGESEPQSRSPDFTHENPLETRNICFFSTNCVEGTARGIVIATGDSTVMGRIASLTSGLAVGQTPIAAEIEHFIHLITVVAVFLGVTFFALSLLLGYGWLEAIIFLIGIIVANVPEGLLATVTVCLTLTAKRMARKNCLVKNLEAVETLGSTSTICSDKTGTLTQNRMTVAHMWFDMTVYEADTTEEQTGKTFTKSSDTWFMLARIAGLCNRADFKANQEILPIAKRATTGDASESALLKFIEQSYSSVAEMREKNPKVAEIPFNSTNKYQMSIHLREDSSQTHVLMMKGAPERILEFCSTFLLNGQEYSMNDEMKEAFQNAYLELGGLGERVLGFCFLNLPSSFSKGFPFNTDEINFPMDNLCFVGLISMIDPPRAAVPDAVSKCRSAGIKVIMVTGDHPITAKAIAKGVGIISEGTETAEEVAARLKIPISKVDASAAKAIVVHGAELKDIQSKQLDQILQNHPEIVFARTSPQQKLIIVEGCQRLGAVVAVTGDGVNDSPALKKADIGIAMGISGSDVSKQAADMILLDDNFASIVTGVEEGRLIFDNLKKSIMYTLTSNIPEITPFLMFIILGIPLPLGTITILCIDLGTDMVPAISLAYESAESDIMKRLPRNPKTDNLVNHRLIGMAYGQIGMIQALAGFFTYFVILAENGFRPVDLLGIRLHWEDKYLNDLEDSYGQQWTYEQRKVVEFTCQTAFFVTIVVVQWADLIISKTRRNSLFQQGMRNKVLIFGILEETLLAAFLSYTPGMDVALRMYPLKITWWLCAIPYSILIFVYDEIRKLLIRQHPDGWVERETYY
UniProt O75348, whole entry, looked up: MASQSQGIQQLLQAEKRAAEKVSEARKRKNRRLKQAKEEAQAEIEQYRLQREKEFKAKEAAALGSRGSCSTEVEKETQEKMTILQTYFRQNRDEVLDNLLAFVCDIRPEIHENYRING

How the values were obtained:
Assay in all cases: log2 fold change, soluble protein after heating vs DMSO (PISA); higher = thermal stabilisation; K562 lysate, 10 uM; active = over 0.2 and 3.5 SD of the protein, either way, in both replicates (recomputed)
lapatinib = compound: CS(=O)(=O)CCNCc1ccc(-c2ccc3ncnc(Nc4ccc(OCc5cccc(F)c5)c(Cl)c4)c3c2)o1 [lapatinib]
How it was run: (§1)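 K562 pellets were dounce-homogenised in PBS pH 7.4 containing 1 mM MgCl2, and the crude extract, at 1 mg/mL protein, was exposed to 10 μM compound for 30 min. Aliquots were heated for 3 min across 48°C-58°C, pooled, brought to 0.5% NP-40 at 4°C and spun at 21,000xg for 90 min, with the supernatant taken as soluble protein. TMTpro 16plex LC-MS/MS with equalised channel sums quantified that protein. Values are log-two fold changes in thermal stability relative to solvent controls, taken from duplicates.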

pictilisib = compound: CS(=O)(=O)N1CCN(Cc2cc3nc(-c4cccc5[nH]ncc45)nc(N4CCOCC4)c3s2)CC1 [pictilisib]
How it was run: as §1

crizotinib = compound: C[C@@H](Oc1cc(-c2cnn(C3CCNCC3)c2)cnc1N)c1c(Cl)ccc(F)c1Cl [crizotinib]
How it was run: as §1

[1] = compound: C[C@H](C1=CC=C(C=C1)C(=O)NC2=C3C=CNC3=NC=C2)N
How it was run: as §1

duvelisib = compound: C[C@H](Nc1ncnc2nc[nH]c12)c1cc2cccc(Cl)c2c(=O)n1-c1ccccc1 [duvelisib]
How it was run: as §1

gandotinib = compound: Cc1cc(Nc2cc(CN3CCOCC3)c3nc(C)c(Cc4ccc(Cl)cc4F)n3n2)n[nH]1 [gandotinib]
How it was run: as §1

tozasertib = compound: Cc1cc(Nc2cc(N3CCN(C)CC3)nc(Sc3ccc(NC(=O)C4CC4)cc3)n2)n[nH]1 [tozasertib]
How it was run: as §1

doramapimod = compound: Cc1ccc(-n2nc(C(C)(C)C)cc2NC(=O)Nc2ccc(OCCN3CCOCC3)c3ccccc23)cc1 [doramapimod]
How it was run: as §1

bafetinib = compound: Cc1ccc(NC(=O)c2ccc(CN3CC[C@H](N(C)C)C3)c(C(F)(F)F)c2)cc1Nc1nccc(-c2cncnc2)n1 [bafetinib]
How it was run: as §1

[2] = compound: Cc1cccc(CC(=O)N2CCc3c2ccc(-c2cn(C)c4ncnc(N)c24)c3F)n1
How it was run: as §1

nilotinib = compound: Cc1cn(-c2cc(NC(=O)c3ccc(C)c(Nc4nccc(-c5cccnc5)n4)c3)cc(C(F)(F)F)c2)cn1 [nilotinib]
How it was run: as §1

[3] = compound: Cc1nc(Nc2n[nH]c3c2CN(C(=O)N[C@H](CN(C)C)c2ccccc2)C3(C)C)c2sccc2n1
How it was run: as §1

dasatinib = compound: Cc1nc(Nc2ncc(C(=O)Nc3c(C)cccc3Cl)s2)cc(N2CCN(CCO)CC2)n1 [dasatinib]
How it was run: as §1

[4] = compound: Cc1ncc(-c2ccnc(Nc3ccc(S(C)(=O)=O)cc3)n2)n1C(C)C
How it was run: as §1

[5] = compound: Cn1cc(-c2ccc3c(c2)CCN3C(=O)Cc2cccc(C(F)(F)F)c2)c2c(N)ncnc21
How it was run: as §1

quisinostat = compound: Cn1cc(CNCC2CCN(c3ncc(C(=O)NO)cn3)CC2)c2ccccc21 [quisinostat]
How it was run: as §1

tipifarnib = compound: Cn1cncc1[C@@](N)(c1ccc(Cl)cc1)c1ccc2c(c1)c(-c1cccc(Cl)c1)cc(=O)n2C [tipifarnib]
How it was run: as §1

[6] = compound: NC(=O)Nc1cc(-c2cccc(F)c2)sc1C(=O)N[C@H]1CCCNC1
How it was run: as §1

[7] = compound: NC(=O)c1cnc(N[C@@H]2CCCC[C@@H]2N)nc1Nc1cccc(-n2nccn2)c1
How it was run: as §1

[8] = compound: NC1(c2ccc(-c3nc4ccn5c(=O)[nH]nc5c4cc3-c3ccccc3)cc2)CCC1
How it was run: as §1

Measured: log2 fold change

ASNA1 (UniProt O43681)
inactive: lapatinib -0.01 | pictilisib -0.001 | crizotinib -0.023 | [1] -0.065 | duvelisib -0.012 | gandotinib -0.034 | tozasertib -0.012 | doramapimod 0.013 | bafetinib -0.024 | [2] -0.021 | nilotinib -0.029 | [3] 0.008 | dasatinib -0.081 | [4] 0.01 | [5] 0.015 | quisinostat 0.011 | tipifarnib 0.022 | [6] -0.005 | [7] -0.025 | [8] -0.01

ATG101 (UniProt Q9BSB4)
inactive: lapatinib 0.036 | pictilisib -0.058 | crizotinib 0.069 | [1] 0 | duvelisib -0.028 | gandotinib 0.145 | tozasertib 0.044 | doramapimod 0.159 | bafetinib -0.086 | [2] 0.013 | nilotinib 0.048 | [3] -0.005 | dasatinib 0.044 | [4] 0.001 | [5] 0.023 | quisinostat 0.056 | tipifarnib -0.058 | [6] -0.03 | [7] 0.007 | [8] -0.013

B3GAT3 (UniProt O94766)
inactive: lapatinib 0.01 | pictilisib -0.014 | crizotinib -0.061 | [1] 0.011 | duvelisib -0.066 | gandotinib 0.006 | tozasertib 0.007 | doramapimod -0.021 | bafetinib -0.089 | [2] 0.087 | nilotinib 0.039 | [3] 0.068 | dasatinib -0.031 | [4] -0.033 | [5] -0.075 | quisinostat 0.015 | tipifarnib 0.094 | [6] 0.048 | [7] 0.009 | [8] 0.017

Reprinted at random: two records from the list.
ATG101 (UniProt Q9BSB4)
inactive: lapatinib 0.036 | pictilisib -0.058 | crizotinib 0.069 | [1] 0 | duvelisib -0.028 | gandotinib 0.145 | tozasertib 0.044 | doramapimod 0.159 | bafetinib -0.086 | [2] 0.013 | nilotinib 0.048 | [3] -0.005 | dasatinib 0.044 | [4] 0.001 | [5] 0.023 | quisinostat 0.056 | tipifarnib -0.058 | [6] -0.03 | [7] 0.007 | [8] -0.013

B3GAT3 (UniProt O94766)
inactive: lapatinib 0.01 | pictilisib -0.014 | crizotinib -0.061 | [1] 0.011 | duvelisib -0.066 | gandotinib 0.006 | tozasertib 0.007 | doramapimod -0.021 | bafetinib -0.089 | [2] 0.087 | nilotinib 0.039 | [3] 0.068 | dasatinib -0.031 | [4] -0.033 | [5] -0.075 | quisinostat 0.015 | tipifarnib 0.094 | [6] 0.048 | [7] 0.009 | [8] 0.017

Going on with the list:

ATP6V1B2 (UniProt P21281)
inactive: lapatinib 0.012 | pictilisib 0.01 | crizotinib 0.001 | [1] -0.066 | duvelisib 0.049 | gandotinib 0.068 | tozasertib -0.009 | doramapimod -0.017 | bafetinib 0.012 | [2] 0.045 | nilotinib 0.005 | [3] -0.001 | dasatinib 0.013 | [4] -0.013 | [5] 0.007 | quisinostat 0.024 | tipifarnib 0 | [6] 0.006 | [7] -0.011 | [8] -0.01

ATP1A1 (UniProt P05023)
inactive: lapatinib 0.012 | pictilisib 0.013 | crizotinib 0.015 | [1] 0.048 | duvelisib 0.002 | gandotinib -0.008 | tozasertib -0.026 | doramapimod -0.024 | bafetinib 0.003 | [2] -0.046 | nilotinib 0.003 | [3] -0.007 | dasatinib 0.031 | [4] -0.001 | [5] 0.009 | quisinostat 0.035 | tipifarnib 0.001 | [6] -0.025 | [7] -0.004 | [8] -0.009

ATG16L1 (UniProt Q676U5)
inactive: lapatinib 0.002 | pictilisib -0.018 | crizotinib 0.078 | [1] 0.054 | duvelisib -0.013 | gandotinib -0.026 | tozasertib 0.023 | doramapimod -0.02 | bafetinib 0.001 | [2] -0.058 | nilotinib 0.003 | [3] -0.022 | dasatinib 0.021 | [4] 0.016 | [5] -0.013 | quisinostat 0.081 | tipifarnib 0.031 | [6] -0.01 | [7] -0.002 | [8] 0.02

ATP6V0A1 isoform 3 (UniProt Q93050)
inactive: lapatinib -0.016 | pictilisib -0.008 | crizotinib 0.016 | [1] -0.058 | duvelisib 0.008 | gandotinib 0.04 | tozasertib 0.059 | doramapimod -0.03 | bafetinib 0.023 | [2] 0.032 | nilotinib 0.057 | [3] -0.014 | dasatinib -0.009 | [4] 0.023 | [5] 0.001 | quisinostat 0.036 | tipifarnib -0.03 | [6] -0.04 | [7] 0.019 | [8] 0.001

ATP5MPL (UniProt P56378)
inactive: lapatinib 0.037 | pictilisib 0.047 | crizotinib -0.026 | [1] 0.075 | duvelisib 0.001 | gandotinib -0.062 | tozasertib 0.026 | doramapimod 0.056 | bafetinib -0.024 | [2] -0.054 | nilotinib 0.038 | [3] 0.017 | dasatinib 0.032 | [4] 0.122 | [5] 0.072 | quisinostat -0.061 | tipifarnib 0.037 | [6] -0.02 | [7] -0.027 | [8] -0.007

AZI2 (UniProt Q9H6S1)
inactive: lapatinib 0.01 | pictilisib 0 | crizotinib 0.051 | [1] -0.019 | duvelisib -0.004 | gandotinib 0.234 | tozasertib 0.138 | doramapimod 0.114 | bafetinib -0.066 | [2] -0.136 | nilotinib -0.047 | [3] -0.012 | dasatinib 0.03 | [4] -0.005 | [5] -0.013 | quisinostat -0.082 | tipifarnib -0.032 | [6] -0.099 | [7] 0.109 | [8] -0.066

ASCC3 (UniProt Q8N3C0)
inactive: lapatinib -0.068 | pictilisib -0.014 | crizotinib -0.111 | [1] -0.071 | duvelisib -0.005 | gandotinib 0.082 | tozasertib -0.009 | doramapimod 0.013 | bafetinib -0.102 | [2] 0.148 | nilotinib -0.007 | [3] 0.003 | dasatinib -0.032 | [4] -0.001 | [5] -0.008 | quisinostat -0.118 | tipifarnib -0.013 | [6] 0.055 | [7] 0.006 | [8] -0.07

ATXN2 (UniProt Q99700)
inactive: lapatinib 0.006 | pictilisib -0.042 | crizotinib 0.028 | [1] 0.019 | duvelisib 0.025 | gandotinib 0.001 | tozasertib 0.011 | doramapimod 0.017 | bafetinib -0.012 | [2] -0.006 | nilotinib -0.04 | [3] 0.023 | dasatinib 0.023 | [4] -0.003 | [5] 0.047 | quisinostat -0.065 | tipifarnib 0.014 | [6] 0.045 | [7] 0.011 | [8] -0.028

ATP6V1E1 (UniProt P36543)
inactive: lapatinib -0.008 | pictilisib -0.004 | crizotinib 0.023 | [1] -0.213 | duvelisib 0.013 | gandotinib 0.054 | tozasertib -0.033 | doramapimod -0.027 | bafetinib 0.058 | [2] 0.102 | nilotinib 0.053 | [3] -0.016 | dasatinib -0.018 | [4] -0.008 | [5] -0.026 | quisinostat 0.009 | tipifarnib -0.021 | [6] 0.016 | [7] -0.007 | [8] -0.012

ATP1A4 (UniProt Q13733)
inactive: lapatinib -0.039 | pictilisib -0.007 | crizotinib 0.027 | [1] -0.034 | duvelisib 0.04 | gandotinib 0.022 | tozasertib -0.023 | doramapimod -0.017 | bafetinib 0.035 | [2] 0.028 | nilotinib -0.005 | [3] -0.014 | dasatinib -0.011 | [4] -0.008 | [5] 0.021 | quisinostat 0.064 | tipifarnib 0.021 | [6] -0.036 | [7] -0.004 | [8] 0.006

ATP6V1G1 (UniProt O75348)
inactive: lapatinib 0.025 | pictilisib 0.008 | crizotinib 0.017 | [1] -0.007 | duvelisib 0.052 | gandotinib 0.013 | tozasertib -0.026 | doramapimod 0.032 | bafetinib -0.001 | [2] 0.016 | nilotinib 0.051 | [3] -0.058 | dasatinib 0.008 | [4] -0.037 | [5] -0.02 | quisinostat 0.012 | tipifarnib -0.02 | [6] -0.006 | [7] 0.038 | [8] -0.004

ATM (UniProt Q13315)
inactive: lapatinib -0.018 | pictilisib -0.055 | crizotinib -0.045 | [1] -0.112 | duvelisib -0.035 | gandotinib 0.014 | tozasertib -0.04 | doramapimod 0.051 | bafetinib -0.01 | [2] 0.08 | nilotinib -0.019 | [3] -0.019 | dasatinib -0.071 | [4] 0.084 | [5] 0.038 | quisinostat 0.039 | tipifarnib 0.009 | [6] 0.009 | [7] 0.039 | [8] 0.008
